Reference: patent publication US12201669B2, “Small molecule suppressors of APOE gene expression and cerebral vascular amyloid pathology” (Massachusetts Institute of Technology, priority 2021, dated 2025)
At least one structure is not confirmed: it was looked up by name or label, or the drawing left a doubt.

Tests used:
APOE4/5×FAD mice = experiment: CAA pathology (vascular amyloid, immunohistochemistry) in APOE4/5×FAD mice treated with FK506; assay type: in vivo; settings: for vascular amyloid accumulation: 0.1 mg/kg i.p., 1 month
IL2 = IL2 expression in spleen and peripheral blood (immunosuppression); assay type: in vivo; settings: 1 month, vs control treated mice
TNFα = TNFα expression in spleen and peripheral blood (immunosuppression); assay type: in vivo; settings: 1 month, vs control treated mice
[1] = tested on: APOE4/4 knock-in/5×FAD mice; experiment: Novel object recognition test; assay type: in vivo; settings: 0.1 mg/kg daily i.p., 6 weeks, vs water control
[2] = tested on: APOE4/4 knock-in/5×FAD mice; experiment: Y-maze working spatial memory test; assay type: in vivo; settings: 0.1 mg/kg daily i.p., 6 weeks, vs water control
APOE = settings: E4 pericytes, earlier work of the inventors; cited from earlier work
[3] = tested on: APOE4KI cortical slice cultures; settings: earlier work of the inventors; cited from earlier work
[4] = daily 0.1 mg/kg i.p., 0.1 mg/kg

SMILES: C=CC[C@@H]1/C=C(\C)C[C@H](C)C[C@H](OC)[C@H]2O[C@@](O)(C(=O)C(=O)N3CCCC[C@H]3C(=O)O[C@H](/C(C)=C/[C@@H]3CC[C@@H](O)[C@H](OC)C3)[C@H](C)[C@@H](O)CC1=O)[C@H](C)C[C@@H]2OC [FK506]
- vascular amyloid accumulation (APOE4/5×FAD mice; 6 month old mice, not significant (limited number of mice)): marginally reduced
- vascular amyloid accumulation (APOE4/5×FAD mice; 11-month-old cohort): significantly reduced
- CAA pathology (APOE4/5×FAD mice; 10 mg/kg once a day, 6 month-old APOE4/5×FAD mice): significantly reduced
- IL2 expression (IL2; 1 mg/kg i.p.): significantly reduced
- IL2 expression (IL2; 10 mg/kg i.p.): significantly reduced
- IL2 expression (IL2; [4]): does not significantly reduce
- TNFα expression (TNFα; 1 mg/kg i.p.): significantly reduced
- TNFα expression (TNFα; 10 mg/kg i.p.): significantly reduced
- TNFα expression (TNFα; [4]): does not significantly reduce
- novel object recognition (discrimination of unfamiliar over familiar objects) [1]: significant improvement
- Y-maze spatial recognition (arm alterations) [2]: significantly improved
- APOE gene expression (APOE): reduction
- APOE protein (APOE): reduction
- APOE protein abundance [3]: reduced
- accumulation of Aβ [3]: reduced
